PubChem BioAssay AID652248 | Drosophila RNAi Screening Center, 2013
In all, the deposit lists 863 reagents; this is an unselected part. 32 of all reagents (3.7%) were called active. 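Calls also used reproducibility and a similarity ranking whose scores are not deposited; many active genes show only modest elongated scores.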 Unmarked entries are inactive. Not all columns of the deposit are shown. The record does not give: the amount of reagent, the time to read-out.

Assay: 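Genes that govern switching among distinct shape types in fly blood cells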 (primary screen)
Cells: cultured Drosophila hemocytes
Knock-down reagent: long dsRNA against Drosophila genes
Measured: 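Automated microscopy of stained actin, tubulin and nuclei; single-cell shape measures assigned to five reference shape types, giving a score per dsRNA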
Reading the numbers: elongated score: higher = more elongated bipolar cells
Call rule: 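Hits show a significant increase of elongated cells; higher rank given where elongated cells rose as other shape types fell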

Target gene | amplicon | elongated score, rep 1 | elongated score, rep 2
CG17598 | DRSC20636 | -0.53 | –
MAPk-Ak2 | DRSC18678 | -0.53 | –
MAPk-Ak2 | DRSC29642 | 2.65 | –
Gk2 | DRSC08610 | 0.06 | –
CG10089 | DRSC09695 | -0.32 | –
CG10089 | DRSC25988 | 3.6 | –
CSN8 | DRSC02257 | -0.41 | –
PpD5 | DRSC04641 | -0.53 | –
PpD5 | DRSC23312 | 0.86 | –
dome | DRSC19583 | 0.45 | –
CG32568 | DRSC19913 | 1.9 | –
Ak1 | DRSC10248 | -0.53 | –
Ak1 | DRSC29837 | 1.54 | –
Adck5 | DRSC10890 | 0.46 | –
pkaap | DRSC01925 | -0.37 | –
Tao | DRSC19573 | 3.25 | -0.3
Tao | DRSC19574 | 5.55 | -0.29
Tao | DRSC22639 | -0.22 | –
Tao | DRSC28431 | 0.39 | –
CycG | DRSC14324 | 0.53 | 1.97
CycG | DRSC23345 | 0.66 | –
ball | DRSC14145 | 0 | –
ball | DRSC26607 | 1.11 | –
alph | DRSC15398 | 1.86 | –
alph | DRSC28570 | 0.11 | –
Alg-2 | DRSC07799 | -0.53 | –
IKKbeta | DRSC16714 | -0.33 | –
wts | DRSC22975 | -0.53 | –
wts | DRSC25766 | -0.27 | –
CG1271 | DRSC08290 | 0.96 | –
sax | DRSC07675 | 0.32 | –
sax | DRSC26844 | 0.31 | –
Pk34A | DRSC03398 | -0.53 | –
Pk34A | DRSC28021 | -0.53 | –
CkIalpha | DRSC20231 | -0.53 | –
CkIalpha | DRSC22609 | -0.53 | –
CkIalpha | DRSC23308 | -0.53 | –
CkIalpha | DRSC25564 | 1.12 | –
CG3008 | DRSC00560 | -0.16 | –
Mkp3 | DRSC10084 | -0.24 | –
Mkp3 | DRSC10085 | -0.53 | –
Drl-2 | DRSC05393 | -0.35 | –
Drl-2 | DRSC06155 | -0.53 | –
Drl-2 | DRSC06858 | 2.07 | –
wit | DRSC08741 | -0.53 | –
wit | DRSC26091 | -0.06 | –
CycJ | DRSC08653 | 0.37 | –
CycJ | DRSC29329 | 3.42 | –
Madm | DRSC12129 | -0.37 | –
Madm | DRSC25999 | -0.1 | –
CG10702 | DRSC02097 | 0.67 | –
Ret | DRSC03409 | 1.11 | –
Ret | DRSC03410 | 0.35 | –
Slik | DRSC04471 | 0.65 (active) | –
Slik | DRSC29219 | 3.95 (active) | –
Alp2 | DRSC04354 | 0.42 | –
Alp2 | DRSC26474 | -0.27 | –
sds22 | DRSC17052 | 0.36 | –
rdgC | DRSC11387 | -0.43 | –
Strn-Mlck | DRSC05032 | -0.1 | –
Strn-Mlck | DRSC05598 | -0.53 | 0.32
Strn-Mlck | DRSC07471 | -0.12 | –
EDTP | DRSC07409 | 3.42 | –
Eip63E | DRSC08658 | 0.54 | –
fs(1)h | DRSC18778 | 2.73 | -0.24
fs(1)h | DRSC29017 | 2.57 | –
put | DRSC17039 | 1.05 | –
CG32812 | DRSC18478 | 2.17 | –

Single entries from the entries so far.
Value of sds22 [DRSC17052] in “elongated score, rep 1”: 0.36
Tao [DRSC28431], elongated score, rep 1: 0.39
Pk34A [DRSC28021], elongated score, rep 1 → -0.53
For “elongated score, rep 1”, CkIalpha [DRSC23308] shows -0.53
CG1271 [DRSC08290], elongated score, rep 1 = 0.96
